Counter-ions that a name gives are not always drawn. This is one part of the list. Repeats are few or missing, and single values can be far off.
Tested on: M229P (parental melanoma line)
Test: reduction in cell viability relative to untreated/vehicle; higher = more growth inhibition
Details: 200 nM; 72 h

Row | Structure (SMILES) | reduction in cell viability [%]
1 | Cc1c(C)n(Cc2ccc(-c3ccccc3C(=O)O)cc2)c2ccc(C(=O)N[C@@H](C)c3ccc([N+](=O)[O-])cc3)cc12 | < 0
2 | O=c1cc(CN2CCOCC2)occ1OCCCCCSc1ccnc2cc(C(F)(F)F)ccc12 | 9.47
3 | O=c1ncn2nc(Sc3ccc(F)cc3F)ccc2c1-c1c(Cl)cccc1Cl | < 0
4 | CO[C@H]1/C=C/O[C@@]2(C)Oc3c(C)c(O)c4c(c3C2=O)C2=NC3(CCN(CC(C)C)CC3)NC2=C(NC(=O)/C(C)=C\C=C\[C@H](C)[C@H](O)[C@@H](C)[C@@H](O)[C@@H](C)[C@H](OC(C)=O)[C@@H]1C)C4=O [Rifabutin] | < 0
5 | O=C(O)C1=CO[C@@H](O[C@@H]2O[C@H](CO)[C@@H](O)[C@H](O)[C@H]2O)[C@@H]2C(CO)=CC[C@H]12 [Geniposidic acid] | < 0
6 | O=c1c(-c2ccc(O)cc2)coc2cc(O)cc(O)c12 [Genistein] | < 0
7 | CC(CCc1ccc(O)cc1)NCCc1ccc(O)c(O)c1 (configuration not stated) [Dobutamine] | < 0
8 | C=C1C(=O)[C@]23[C@H](O)[C@H]1CC[C@H]2[C@@]12CO[C@]3(O)[C@@H](O)[C@@H]1C(C)(C)CC[C@@H]2O [Oridonin] | < 0
9 | CC(C)OC(=O)C(C(=O)OC(C)C)=C1SC=CS1 [Malotilate] | < 0
10 | COc1cc2c(cc1-c1c(C)noc1C)ncc1[nH]c(=O)n([C@H](C)c3ccccn3)c12 | < 0
11 | Oc1ccc([C@@H]2Oc3ccc(O)cc3[C@@H]3CCC[C@@H]32)cc1 [Erteberel] | < 0
12 | CN1CCN(c2c(F)cc3c(=O)c(C(=O)O)cn(CCF)c3c2F)CC1 [Fleroxacin] | < 0
13 | COc1cccc2cc(-c3nc([C@H]4CC[C@H](C(=O)O)CC4)n4ncnc(N)c34)[nH]c12 | < 0
14 | O=c1c(O)c(-c2ccc(O)c(O)c2)oc2cc(O)cc(O)c12 [Quercetine] | < 0
15 | NCC(=O)Nc1ccc(-n2nc(C(F)(F)F)cc2-c2ccc3c(ccc4ccccc43)c2)cc1 | < 0
16 | CC(C)C[C@@H](N)[C@H](O)C(=O)N[C@H](C(=O)N[C@H](C(=O)N[C@@H](CC(=O)O)C(=O)O)C(C)C)C(C)C [Amastatin] | < 0

Row | Structure (SMILES) | reduction in cell viability [%]
17 | C/C=C/C[C@@H](C)C(=O)[C@H]1C(=O)N[C@@H](C(C)C)C(=O)N(C)CC(=O)N(C)[C@@H](CC(C)C)C(=O)N[C@@H](C(C)C)C(=O)N(C)[C@@H](CC(C)C)C(=O)N[C@@H](C)C(=O)N[C@H](C)C(=O)N(C)[C@@H](CC(C)C)C(=O)N(C)[C@@H](CC(C)C)C(=O)N(C)[C@@H](C(C)C)C(=O)N1C [Valspodar] | < 0
18 | CCOC(=O)N1CCN(/[N+]([O-])=N/Oc2cc(O/N=[N+](\[O-])N3CCN(C(=O)OCC)CC3)c([N+](=O)[O-])cc2[N+](=O)[O-])CC1 [Double JS-K] | < 0
19 | O=c1[nH]cc(F)c(=O)[nH]1 [Fluorouracil] | < 0
20 | COc1ccc(Cn2ccc3ccc(C(=O)NO)cc32)cc1 | < 0
21 | C[C@@H]1COC(Nc2ccc3ncnc(Nc4ccc(OCc5nccs5)c(Cl)c4)c3c2)=N1 [Varlitinib tosylate] | < 0
22 | O=C(Nc1ccccc1Br)N[C@@H]1CCN(c2ccc(C(F)(F)F)cn2)C1 | < 0
23 | C[C@H](NC(=O)[C@@H](O)c1cc(F)cc(F)c1)C(=O)N[C@@H]1C(=O)N(C)c2ccccc2-c2ccccc21 | < 0
24 | COc1cc2c(Nc3ccc(Cl)c(Cl)c3F)ncnc2cc1OC[C@@H]1C[C@@H]2CN(C)C[C@@H]2C1 | < 0
25 | CC(C)Oc1ccc2c(=O)c(-c3ccccc3)coc2c1 [Ipriflavone] | < 0
26 | COc1cc(CNC(=O)CCCC/C=C/C(C)C)ccc1O [Capsaicin] | < 0
27 | COc1ccc2c(c1)c(CC(=O)O)c(C)n2C(=O)c1ccc(Cl)cc1 [Indomethacin] | < 0
28 | N.N.O=C([O-])C[O-].[Pt+2] [Nedaplatin] | < 0
29 | Cc1cc(OCCCS(C)(=O)=O)cc(C)c1-c1cccc(COc2ccc3c(c2)OC[C@H]3CC(=O)O)c1 | < 0
30 | CC(C)c1onc(-c2c(Cl)cccc2Cl)c1COc1ccc(/C=C/c2cccc(C(=O)O)c2)c(Cl)c1 | < 0
31 | COc1ccc(S(=O)(=O)Nc2cccnc2Nc2ccc(O)cc2)cc1 | < 0
32 | CCCCc1ncc(/C=C(\Cc2cccs2)C(=O)O)n1Cc1ccc(C(=O)O)cc1 [Eprosartan mesylate] | < 0

A section from further up:
Row | Structure (SMILES) | reduction in cell viability [%]
25 | CC(C)Oc1ccc2c(=O)c(-c3ccccc3)coc2c1 [Ipriflavone] | < 0
26 | COc1cc(CNC(=O)CCCC/C=C/C(C)C)ccc1O [Capsaicin] | < 0
27 | COc1ccc2c(c1)c(CC(=O)O)c(C)n2C(=O)c1ccc(Cl)cc1 [Indomethacin] | < 0

— the supplement of paper PMC9015667
